Source: the supplement of paper PMC8728848
The other results are listed elsewhere or left out.

How the values were obtained:
Assay in all cases: glycan array binding signal (z-score within array); higher = stronger binding
Details in all cases: glycan notation: IUPAC condensed, linker removed
[1] = target: Gal3S(b1-3)[Fuc(a1-4)]GlcNAc
Outline: (§1)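 Glycan array binding is given as a within-array Z-score, which can be read as non-binding when negative. The arrays, 3228 of them, came from the Consortium for Functional Glycomics database and were retained only where the protein sequence was available. Z-scores were averaged across arrays of the same protein sequence at different concentrations or buffers and across linkers.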

[2] = target: Gal3S(b1-4)Glc
Outline: as §1

[3] = target: Gal3S(b1-4)Glc6S
Outline: as §1

[4] = target: Gal3S(b1-4)GlcNAc
Outline: as §1

[5] = target: Gal3S(b1-4)[Fuc(a1-3)]Glc6S
Outline: as §1

[6] = target: Gal3S(b1-4)[Fuc(a1-3)]GlcNAc
Outline: as §1

[7] = target: Gal3S(b1-4)[Fuc(a1-3)]GlcNAc6S
Outline: as §1

[8] = target: Gal3S4S(b1-4)GlcNAc
Outline: as §1

[9] = target: Gal3S6S(b1-4)GlcNAc
Outline: as §1

[10] = target: Gal3S6S(b1-4)GlcNAc6S
Outline: as §1

[11] = target: Gal4S(b1-4)GlcNAc
Outline: as §1

[12] = target: Gal4S6S(b1-4)GlcNAc
Outline: as §1

[13] = target: Gal6P(b1-4)GlcNAc
Outline: as §1

[14] = target: Gal6S(b1-3)GlcNAc
Outline: as §1

[15] = target: Gal6S(b1-3)GlcNAc6S
Outline: as §1

[16] = target: Gal6S(b1-4)Glc
Outline: as §1

[17] = target: Gal6S(b1-4)Glc6S
Outline: as §1

[18] = target: Gal6S(b1-4)GlcNAc
Outline: as §1

[19] = target: Gal6S(b1-4)GlcNAc6S
Outline: as §1

[20] = target: GalNAc(a1-3)Gal
Outline: as §1

[21] = target: GalNAc(a1-3)GalNAc
Outline: as §1

[22] = target: GalNAc(a1-3)GalNAc(b1-3)Gal(a1-4)Gal(b1-4)Glc
Outline: as §1

[23] = target: GalNAc(a1-3)GalNAc(b1-3)Gal(a1-4)Gal(b1-4)GlcNAc
Outline: as §1

[24] = target: GalNAc(b1-3)Gal
Outline: as §1

[25] = target: GalNAc(b1-3)Gal(a1-4)Gal(b1-4)GlcNAc
Outline: as §1

[26] = target: GalNAc(b1-3)Gal(a1-4)Gal(b1-4)GlcNAc(b1-3)Gal(b1-4)Glc
Outline: as §1

[27] = target: GalNAc(b1-3)Gal(a1-6)Gal(b1-4)Glc
Outline: as §1

[28] = target: GalNAc(b1-3)GalNAc
Outline: as §1

[29] = target: GalNAc(b1-3)GlcNAc
Outline: as §1

[30] = target: GalNAc(b1-4)Gal(b1-4)Glc
Outline: as §1

[31] = target: GalNAc(b1-4)GlcNAc
Outline: as §1

[32] = target: GalNAc(b1-4)GlcNAc(b1-2)Man
Outline: as §1

[33] = target: GalNAc(b1-4)GlcNAc(b1-2)Man(a1-3)[GalNAc(b1-4)GlcNAc(b1-2)Man(a1-6)]Man(b1-4)GlcNAc(b1-4)GlcNAc
Outline: as §1

[34] = target: GalNAc(b1-4)GlcNAc(b1-3)GalNAc(b1-4)GlcNAc
Outline: as §1

[35] = target: GalNAc(b1-4)GlcNAc6S
Outline: as §1

[36] = target: GalNAc(b1-6)GalNAc
Outline: as §1

[37] = target: GalNAc3S(b1-4)GlcNAc
Outline: as §1

[38] = target: GalNAc3S(b1-4)GlcNAc3S
Outline: as §1

[39] = target: GalNAc3S(b1-4)[Fuc(a1-3)]GlcNAc
Outline: as §1

[40] = target: GalNAc4S6S(b1-4)GlcNAc
Outline: as §1

[41] = target: GalNAc6S(b1-4)GlcNAc
Outline: as §1

[42] = target: Glc(a1-4)Glc
Outline: as §1

[43] = target: Glc(a1-4)Glc(a1-4)Glc(a1-4)Glc
Outline: as §1

[44] = target: Glc(a1-6)Glc(a1-6)Glc
Outline: as §1

[45] = target: Glc(a1-6)Glc(a1-6)Glc(a1-6)Glc
Outline: as §1

[46] = target: Glc(b1-4)Glc
Outline: as §1

[47] = target: Glc(b1-6)Glc
Outline: as §1

[48] = target: GlcA(b1-3)Gal
Outline: as §1

[49] = target: GlcA(b1-3)GlcNAc
Outline: as §1

[50] = target: GlcA(b1-6)Gal
Outline: as §1

[51] = target: GlcA3S(b1-3)Gal(b1-4)GlcNAc(b1-2)Man
Outline: as §1

[52] = target: GlcA3S(b1-3)Gal(b1-4)GlcNAc(b1-3)Gal(b1-4)Glc
Outline: as §1

[53] = target: GlcNAc(a1-3)Gal(b1-4)GlcNAc
Outline: as §1

[54] = target: GlcNAc(a1-4)Gal(b1-3)GlcNAc
Outline: as §1

[55] = target: GlcNAc(a1-4)Gal(b1-4)GalNAc
Outline: as §1

[56] = target: GlcNAc(a1-4)Gal(b1-4)GlcNAc
Outline: as §1

[57] = target: GlcNAc(a1-4)Gal(b1-4)GlcNAc(b1-3)Gal(b1-4)Glc
Outline: as §1

[58] = target: GlcNAc(a1-4)Gal(b1-4)GlcNAc(b1-3)Gal(b1-4)GlcNAc
Outline: as §1

[59] = target: GlcNAc(a1-4)Gal(b1-4)GlcNAc(b1-3)Gal(b1-4)GlcNAc(b1-3)Gal(b1-4)GlcNAc
Outline: as §1

[60] = target: GlcNAc(a1-4)Gal(b1-4)GlcNAc(b1-3)Gal(b1-4)[Fuc(a1-3)]GlcNAc(b1-3)Gal(b1-4)[Fuc(a1-3)]GlcNAc
Outline: as §1

[61] = target: GlcNAc(a1-6)Gal(b1-4)GlcNAc
Outline: as §1

[62] = target: GlcNAc(b1-2)Gal(b1-3)GalNAc
Outline: as §1

[63] = target: GlcNAc(b1-2)Man(a1-3)[GlcNAc(b1-2)Man(a1-6)]Man(b1-4)GlcNAc(b1-4)GlcNAc
Outline: as §1

[64] = target: GlcNAc(b1-2)Man(a1-3)[GlcNAc(b1-2)Man(a1-6)]Man(b1-4)GlcNAc(b1-4)[Fuc(a1-6)]GlcNAc
Outline: as §1

[65] = target: GlcNAc(b1-2)Man(a1-3)[GlcNAc(b1-4)][GlcNAc(b1-2)Man(a1-6)]Man(b1-4)GlcNAc(b1-4)GlcNAc
Outline: as §1

[66] = target: GlcNAc(b1-2)Man(a1-3)[GlcNAc(b1-4)][GlcNAc(b1-2)Man(a1-6)]Man(b1-4)GlcNAc(b1-4)[Fuc(a1-6)]GlcNAc
Outline: as §1

[67] = target: GlcNAc(b1-2)[GlcNAc(b1-4)]Man(a1-3)[GlcNAc(b1-2)Man(a1-6)]Man(b1-4)GlcNAc(b1-4)GlcNAc
Outline: as §1

[68] = target: GlcNAc(b1-2)[GlcNAc(b1-4)]Man(a1-3)[GlcNAc(b1-4)][GlcNAc(b1-2)Man(a1-6)]Man(b1-4)GlcNAc(b1-4)GlcNAc
Outline: as §1

[69] = target: GlcNAc(b1-2)[GlcNAc(b1-4)]Man(a1-3)[GlcNAc(b1-4)][GlcNAc(b1-2)[GlcNAc(b1-6)]Man(a1-6)]Man(b1-4)GlcNAc(b1-4)GlcNAc
Outline: as §1

[70] = target: GlcNAc(b1-2)[GlcNAc(b1-4)]Man(a1-3)[GlcNAc(b1-4)][GlcNAc(b1-2)[GlcNAc(b1-6)]Man(a1-6)]Man(b1-4)GlcNAc(b1-4)[Fuc(a1-6)]GlcNAc
Outline: as §1

[71] = target: GlcNAc(b1-2)[GlcNAc(b1-6)]Man(a1-6)[GlcNAc(b1-2)Man(a1-3)]Man(b1-4)GlcNAc(b1-4)GlcNAc
Outline: as §1

[72] = target: GlcNAc(b1-2)[GlcNAc(b1-6)]Man(a1-6)[GlcNAc(b1-2)Man(a1-3)]Man(b1-4)GlcNAc(b1-4)[Fuc(a1-6)]GlcNAc
Outline: as §1

[73] = target: GlcNAc(b1-2)[GlcNAc(b1-6)]Man(a1-6)[GlcNAc(b1-4)][GlcNAc(b1-2)Man(a1-3)]Man(b1-4)GlcNAc(b1-4)GlcNAc
Outline: as §1

[74] = target: GlcNAc(b1-3)Fuc
Outline: as §1

[75] = target: GlcNAc(b1-3)Gal
Outline: as §1

B1: SP15308C-bot-338-23-338 (Bacteroides ovatus) (protein)
chain: DEWTDEQFKQLISFKTQPGGWGVTDVHVRYANSAKYTYNLPVLVSGSTDNTDDRLVSFSLRDDTLDILNFEKFGNRPELYFRELPQKYYSFPKELTIPAGQSHALLPIEFSLDGLDDSQKWALPLKVCEDANGTYAVNPRKYYRTAVLRPILFNEFSGRFSGSSLLGTMAGESDIKFSSTEIKLNVVTDSIVFFYAGQRTEDYEDRINYKVFLQFTGDKVDSKKDLYKMKIWAENEKLKFNSYSTPTYKVSSEMDATKTYLKHTYIVISDIDFDFVDYTSVPNYEIEYNMKGGLSVSRDLDTRKPDEDQGSDSKWW
glycan array binding signal (z-score) [1]: -0.235 | glycan array binding signal (z-score) [2]: -0.591 | glycan array binding signal (z-score) [3]: -0.188 | glycan array binding signal (z-score) [4]: -0.103 | glycan array binding signal (z-score) [5]: 0.68 | glycan array binding signal (z-score) [6]: 0.231 | glycan array binding signal (z-score) [7]: 0.431 | glycan array binding signal (z-score) [8]: -0.024 | glycan array binding signal (z-score) [9]: -0.862 | glycan array binding signal (z-score) [10]: 0.13 | glycan array binding signal (z-score) [11]: -0.375 | glycan array binding signal (z-score) [12]: 0.444 | glycan array binding signal (z-score) [13]: -0.444 | glycan array binding signal (z-score) [14]: 1.78 | glycan array binding signal (z-score) [15]: 0.585 | glycan array binding signal (z-score) [16]: -0.267 | glycan array binding signal (z-score) [17]: -0.508 | glycan array binding signal (z-score) [18]: -0.017 | glycan array binding signal (z-score) [19]: -0.622 | glycan array binding signal (z-score) [20]: -0.157 | glycan array binding signal (z-score) [21]: -0.472 | glycan array binding signal (z-score) [22]: -0.652 | glycan array binding signal (z-score) [23]: 0.315 | glycan array binding signal (z-score) [24]: -0.133 | glycan array binding signal (z-score) [25]: 1.16 | glycan array binding signal (z-score) [26]: -0.378 | glycan array binding signal (z-score) [27]: -0.515 | glycan array binding signal (z-score) [28]: -0.579 | glycan array binding signal (z-score) [29]: 0.014 | glycan array binding signal (z-score) [30]: 0.663 | glycan array binding signal (z-score) [31]: -0.202 | glycan array binding signal (z-score) [32]: 0.109 | glycan array binding signal (z-score) [33]: 1.03 | glycan array binding signal (z-score) [34]: 0.135 | glycan array binding signal (z-score) [35]: -0.131 | glycan array binding signal (z-score) [36]: 0.119 | glycan array binding signal (z-score) [37]: -0.876 | glycan array binding signal (z-score) [38]: -0.145 | glycan array binding signal (z-score) [39]: -0.053 | glycan array binding signal (z-score) [40]: -0.094 | glycan array binding signal (z-score) [41]: -0.492 | glycan array binding signal (z-score) [42]: -0.074 | glycan array binding signal (z-score) [43]: -0.105 | glycan array binding signal (z-score) [44]: -0.504 | glycan array binding signal (z-score) [45]: -0.322 | glycan array binding signal (z-score) [46]: -0.227 | glycan array binding signal (z-score) [47]: 0.141 | glycan array binding signal (z-score) [48]: -0.033 | glycan array binding signal (z-score) [49]: 1.1 | glycan array binding signal (z-score) [50]: -0.162 | glycan array binding signal (z-score) [51]: -0.462 | glycan array binding signal (z-score) [52]: -0.588 | glycan array binding signal (z-score) [53]: -0.287 | glycan array binding signal (z-score) [54]: 0.674 | glycan array binding signal (z-score) [55]: 0.249 | glycan array binding signal (z-score) [56]: -0.574 | glycan array binding signal (z-score) [57]: -0.788 | glycan array binding signal (z-score) [58]: -0.205 | glycan array binding signal (z-score) [59]: -0.311 | glycan array binding signal (z-score) [60]: 1.81 | glycan array binding signal (z-score) [61]: 0.512 | glycan array binding signal (z-score) [62]: -0.005 | glycan array binding signal (z-score) [63]: -0.466 | glycan array binding signal (z-score) [64]: 0.155 | glycan array binding signal (z-score) [65]: -0.307 | glycan array binding signal (z-score) [66]: -0.34 | glycan array binding signal (z-score) [67]: -0.931 | glycan array binding signal (z-score) [68]: -0.593 | glycan array binding signal (z-score) [69]: 0.066 | glycan array binding signal (z-score) [70]: -0.818 | glycan array binding signal (z-score) [71]: -0.51 | glycan array binding signal (z-score) [72]: 1.06 | glycan array binding signal (z-score) [73]: -0.397 | glycan array binding signal (z-score) [74]: -0.187 | glycan array binding signal (z-score) [75]: -0.756
